# Test results reported in publication PMC4179492.
# Amino acid sequences for entries named in this document (tags omitted).
# UniProt P07814: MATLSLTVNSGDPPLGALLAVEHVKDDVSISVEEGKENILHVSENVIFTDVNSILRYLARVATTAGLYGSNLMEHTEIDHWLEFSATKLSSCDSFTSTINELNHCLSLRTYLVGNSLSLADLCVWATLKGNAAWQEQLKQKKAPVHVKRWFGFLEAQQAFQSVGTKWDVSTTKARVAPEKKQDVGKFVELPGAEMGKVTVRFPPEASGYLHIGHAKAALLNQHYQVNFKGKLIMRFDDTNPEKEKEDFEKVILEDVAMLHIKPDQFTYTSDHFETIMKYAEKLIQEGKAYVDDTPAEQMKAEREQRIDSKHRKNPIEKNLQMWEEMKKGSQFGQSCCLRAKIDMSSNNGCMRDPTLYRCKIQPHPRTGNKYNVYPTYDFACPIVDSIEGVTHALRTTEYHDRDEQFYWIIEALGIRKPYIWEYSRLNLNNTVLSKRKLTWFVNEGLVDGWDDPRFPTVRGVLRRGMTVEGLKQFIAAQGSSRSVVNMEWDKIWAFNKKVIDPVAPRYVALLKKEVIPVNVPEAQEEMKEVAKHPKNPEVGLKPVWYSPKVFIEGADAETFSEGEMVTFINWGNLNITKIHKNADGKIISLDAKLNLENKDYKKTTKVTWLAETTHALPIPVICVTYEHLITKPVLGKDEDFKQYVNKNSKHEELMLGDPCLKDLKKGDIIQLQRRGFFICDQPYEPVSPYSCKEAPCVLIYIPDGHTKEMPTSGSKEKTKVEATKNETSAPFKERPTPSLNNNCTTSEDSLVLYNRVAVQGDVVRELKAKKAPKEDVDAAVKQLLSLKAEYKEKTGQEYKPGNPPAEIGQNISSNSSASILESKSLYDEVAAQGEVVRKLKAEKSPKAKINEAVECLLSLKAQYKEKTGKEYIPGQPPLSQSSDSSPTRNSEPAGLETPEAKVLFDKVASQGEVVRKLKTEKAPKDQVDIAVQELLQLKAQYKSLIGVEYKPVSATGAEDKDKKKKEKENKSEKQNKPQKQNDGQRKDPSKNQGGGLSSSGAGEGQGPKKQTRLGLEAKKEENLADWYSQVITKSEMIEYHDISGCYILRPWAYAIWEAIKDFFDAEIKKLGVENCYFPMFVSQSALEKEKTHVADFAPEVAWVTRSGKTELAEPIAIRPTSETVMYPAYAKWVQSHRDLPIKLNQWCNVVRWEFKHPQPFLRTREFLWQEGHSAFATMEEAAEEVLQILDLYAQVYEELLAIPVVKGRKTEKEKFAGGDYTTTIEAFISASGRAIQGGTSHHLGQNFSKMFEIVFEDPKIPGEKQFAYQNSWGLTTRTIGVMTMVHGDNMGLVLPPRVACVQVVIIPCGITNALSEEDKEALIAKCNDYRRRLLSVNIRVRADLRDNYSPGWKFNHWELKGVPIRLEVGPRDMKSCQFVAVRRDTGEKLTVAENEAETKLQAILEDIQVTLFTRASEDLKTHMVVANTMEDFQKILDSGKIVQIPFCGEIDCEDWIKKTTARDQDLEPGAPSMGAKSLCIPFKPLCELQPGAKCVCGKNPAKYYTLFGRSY
# These are yes or no findings as the source states them, for the method shown. In cells and extracts the contact can be indirect. Some binding calls cover weakened binding; strength is not graded here. Tags and fused reporters may be left off the sequences shown.
# B1: Myc–MRS-SD mutant (methionyl-tRNA synthetase S209D/S825D) (enzyme, UniProt P56192 1-900)
# chain: MRLFVSDGVPGCLPVLAAAGRARGRAEVLISTVGPEDCVVPFLTRPKVPVLQLDSGNYLFSTSAICRYFFLLSGWEQDDLTNQWLEWEATELQPALSAALYYLVVQGKKGEDVLGSVRRALTHIDHSLSRQNCPFLAGETESLADIVLWGALYPLLQDPAYLPEELSALHSWFQTLSTQEPCQRAAETVLKQQGVLALRPYLQKQPQPDPAEGRAVTNEPEEEELATLSEEEIAMAVTAWEKGLESLPPLRPQQNPVLPVAGERNVLITSALPYVNNVPHLGNIIGCVLSADVFARYSRLRQWNTLYLCGTDEYGTATETKALEEGLTPQEICDKYHIIHADIYRWFNISFDIFGRTTTPQQTKITQDIFQQLLKRGFVLQDTVEQLRCEHCARFLADRFVEGVCPFCGYEEARGDQCDKCGKLINAVELKKPQCKVCRSCPVVQSSQHLFLDLPKLEKRLEEWLGRTLPGSDWTPNAQFITRSWLRDGLKPRCITRDLKWGTPVPLEGFEDKVFYVWFDATIGYLSITANYTDQWERWWKNPEQVDLYQFMAKDNVPFHSLVFPCSALGAEDNYTLVSHLIATEYLNYEDGKFSKSRGVGVFGDMAQDTGIPADIWRFYLLYIRPEGQDSAFSWTDLLLKNNSELLNNLGNFINRAGMFVSKFFGGYVPEMVLTPDDQRLLAHVTLELQHYHQLLEKVRIRDALRSILTISRHGNQYIQVNEPWKRIKGSEADRQRAGTVTGLAVNIAALLSVMLQPYMPTVSATIQAQLQLPPPACSILLTNFLCTLPAGHQIGTVSPLFQKLENDQIESLRQRFGGGQAKTDPKPAVVETVTTAKPQQIQALMDEVTKQGNIVRELKAQKADKNEVAAEVAKLLDLKKQLAVAEGKPPEAPKGKKKK
# Target: EPRS (glutamyl-prolyl tRNA synthetase) (human (endogenous in HeLa or HEK293T; the cell line is not stated for this experiment)) (UniProt P07814)
# Assay: co-IP; immunoprecipitation with anti-EPRS and anti-Myc antibodies from cell protein extracts; data not shown
binder,measurement,value
B1,binding,binds
